Experimental data from the NIST ThermoML archive (doi:10.1021/acs.jced.5b00944).
± gives the expanded uncertainty stated by the source.

Settings: 333.15 K; 100 kPa; Liquid; Vibrating tube method

O [water]
mass density: 983.19 ± 0.14 kg/m3
